From PMC3581573
Results are given in words; binding and its absence hold for the method and conditions named. Some results given as binding are weak or reduced against the parent protein; the word gives no strength.

Amino acid sequences for entries named in this document (tags omitted).
UniProt Q6NUA1: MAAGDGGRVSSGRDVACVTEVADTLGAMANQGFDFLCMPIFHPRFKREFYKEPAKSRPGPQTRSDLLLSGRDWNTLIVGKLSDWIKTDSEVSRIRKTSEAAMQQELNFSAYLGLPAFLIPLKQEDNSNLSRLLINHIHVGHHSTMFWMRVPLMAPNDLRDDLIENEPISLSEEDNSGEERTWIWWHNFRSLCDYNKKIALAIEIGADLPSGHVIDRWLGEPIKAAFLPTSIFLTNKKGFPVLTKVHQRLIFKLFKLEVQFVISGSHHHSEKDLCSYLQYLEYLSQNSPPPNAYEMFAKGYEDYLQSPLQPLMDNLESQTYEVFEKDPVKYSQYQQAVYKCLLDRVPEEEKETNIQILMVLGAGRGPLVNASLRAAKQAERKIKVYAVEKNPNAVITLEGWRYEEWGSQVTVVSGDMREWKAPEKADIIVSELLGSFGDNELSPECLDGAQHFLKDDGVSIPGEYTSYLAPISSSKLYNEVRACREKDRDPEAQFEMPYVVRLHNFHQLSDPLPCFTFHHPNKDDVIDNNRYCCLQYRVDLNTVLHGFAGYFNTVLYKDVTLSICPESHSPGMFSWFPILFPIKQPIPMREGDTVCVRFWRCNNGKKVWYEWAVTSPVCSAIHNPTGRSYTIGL

Key:
[1] = target: Xenopus laevis PRMT5 (Xenopus laevis) (UniProt Q6NUA1); experiment: SEC-MALS; 15 µg PRMT5 and MEP50 in 20 mM ADA pH 6.5, 250 mM NaCl, 10% glycerol, 5 mM DTT; WTC030N5 column; both purified
[2] = target: Xenopus laevis PRMT5 (Xenopus laevis) (UniProt Q6NUA1); experiment: crystal structure; XlPRMT5-MEP50 co-crystallised with 1 mM SAH; 30%–40% MPD, 100 mM Bis-Tris pH 5.5, 18°C; 3.0 Å; both purified
[3] = target: Xenopus laevis PRMT5 (Xenopus laevis) (UniProt Q6NUA1); experiment: FPLC-SAXS; in-line small-angle X-ray scattering over the gel-filtration peak; curve fitted to the crystal structure with CRYSOL; both purified
[4] = target: Xenopus laevis PRMT5 (Xenopus laevis) (UniProt Q6NUA1); experiment: AUC; sedimentation equilibrium (0.23, 0.77 and 0.9 µM tetramer) and velocity (0.97 µM); 20 mM ADA pH 6.5, 250 mM NaCl, 10% glycerol, 5 mM DTT, 20°C; also run in 2 M NaCl with no change in mass; both purified

Measured: binding

B1: Xenopus laevis MEP50 (co-expressed with PRMT5) (protein, UniProt Q6NUD0 1-333)
chain: MSKGSAWGRPVTAPACMEVQIGAVRYRRDGALLLAASSLSSRTWGGSIWVFKDPEGAPNESLCTAGVQTEAGVTDVAWVSEKGILVASDSGAVELWEILEKESLLVNKFAKYEHDDIVKTLSVFSDGTQAVSGGKDFSVKVWDLSQKAVLKSYNAHSSEVNCVAACPGKDTIFLSCGEDGRILLWDTRKPKPATRIDFCASDTIPTSVTWHPEKDDTFACGDETGNVSLVNIKNPDSAQTSAVHSQNITGLAYSYHSSPFLASISEDCTVAVLDADFSEVFRDLSHRDFVTGVAWSPLDHSKFTTVGWDHKVLHHHLPSEGRTENLIATKAED
binds: [1] | [2] | [3] | [4]
